{"source": "patent US11299447B2", "about": "“Method for isolating a carboxylic acid from an aqueous solution” (PURAC BIOCHEM BV, priority 2011, dated 2022)", "assay_type_in_all_cases": "physicochemical", "key": {"[1]": {"test": "Comparison of different solvents in lactic acid extraction", "details": "per extraction solvent; feed 29 wt % lactic acid, 15 wt. % MgCl2; 20° C."}, "[2]": {"test": "Forward/back extraction of different acids with methyl-isobutylketone", "details": "MIBK, 20° C."}, "[3]": {"test": "Extraction of different types of polycarboxylic acids", "details": "for concentration ratio: acid concentration in product / acid concentration in feed; for [acid] aqueous fraction after back extraction: feed per Table 12.1, 15 wt. % MgCl2", "source_text": "These tables also give the concentration ratio, which is the ratio between the acid concentration in the product and the acid concentration in the feed."}, "[4]": {"test": "Removal of solvent from acid product (forward/back extraction, then steam stripping)", "details": "for Solvent residue after stripping: after evaporating 50% (weight basis) in atmospheric packed stripping column; for Solvent residue before stripping: in aqueous product after back extraction; for 2-hydroxy butyric acid in aqueous product: per extraction solvent, feed 34 wt % acid, 15 wt % MgCl2, forward and back extraction 20° C., ratio 1:10"}, "[5]": {"test": "Pilot extraction of lactic acid in Pulsed Disc and Donut Column", "details": "PDDC pilot column, MIBK, counter-current; forward 60° C., back 20° C.; feed 29 wt %"}}, "data": [{"compound": "CCCCCC(C)=O", "note": "[2-heptanone]", "values": [{"measurement": "[lactic acid] product", "setting": "[1]", "result": 34, "unit": "wt. %"}]}, {"compound": "CCCCC(C)=O", "note": "[2-hexanone]", "values": [{"measurement": "[lactic acid] product", "setting": "[1]", "result": 35, "unit": "wt. %"}]}, {"compound": "CCC(O)C(=O)O", "note": "(stereo not drawn) [2-hydroxy butyric acid]", "values": [{"measurement": "wt. % acid in product", "setting": "[2]; feed 13 wt. % acid, 7 wt. % MgCl2", "result": 15, "unit": "wt. %"}, {"measurement": "wt. % acid in product", "setting": "[2]; feed 34 wt. % acid, 15 wt. % MgCl2", "result": 21, "unit": "wt. %"}]}, {"compound": "CCCCCCC(C)=O", "note": "[2-octanone]", "values": [{"measurement": "[lactic acid] product", "setting": "[1]", "result": 30, "unit": "wt. %"}]}, {"compound": "CCCC(C)=O", "note": "[2-pentanone]", "values": [{"measurement": "[lactic acid] product", "setting": "[1]", "result": 30, "unit": "wt. %"}]}, {"compound": "O=C(O)CCO", "note": "[3-hydroxy propionic acid]", "values": [{"measurement": "wt. % acid in product", "setting": "[2]; feed 8 wt. % acid, 5 wt. % MgCl2", "result": 4, "unit": "wt. %"}, {"measurement": "wt. % acid in product", "setting": "[2]; feed 27 wt. % acid, 15 wt. % MgCl2", "result": 21, "unit": "wt. %"}]}, {"compound": "O=C(O)/C=C/C(=O)O", "note": "[Fumaric acid, fumaric acid]", "values": [{"measurement": "concentration ratio", "setting": "[3]", "result": 1.8}, {"measurement": "[acid] aqueous fraction after back extraction", "setting": "[3]", "result": 0.21, "unit": "wt. %"}]}, {"compound": "C=C(CC(=O)O)C(=O)O", "note": "[Itaconic acid, itaconic acid]", "values": [{"measurement": "concentration ratio", "setting": "[3]", "result": 1.9}, {"measurement": "[acid] aqueous fraction after back extraction", "setting": "[3]", "result": 2.8, "unit": "wt. %"}]}, {"compound": "CC(=O)CC(C)C", "note": "[MIBK, methyl-isobutylketone]", "values": [{"measurement": "[lactic acid] product", "setting": "[1]", "result": 35, "unit": "wt. %"}, {"measurement": "Solvent residue after stripping", "setting": "[4]", "result": 0.6, "unit": "mg/kg"}, {"measurement": "Solvent residue before stripping", "setting": "[4]", "result": 24000, "unit": "mg/kg"}, {"measurement": "2-hydroxy butyric acid in aqueous product", "setting": "[4]", "result": 22, "unit": "wt. %"}]}, {"compound": "CCCCCCCCN(CCCCCCCC)CCCCCCCC", "note": "[Trioctylamine, reference compound]", "values": [{"measurement": "Solvent residue after stripping", "setting": "[4]", "result": 20, "unit": "mg/kg"}, {"measurement": "Solvent residue before stripping", "setting": "[4]", "result": 9, "unit": "mg/kg"}, {"measurement": "2-hydroxy butyric acid in aqueous product", "setting": "[4]", "result": 15, "unit": "wt. %"}]}, {"compound": "CC(=O)c1ccccc1", "note": "[acetophenone]", "values": [{"measurement": "[lactic acid] product", "setting": "[1]", "result": 34, "unit": "wt. %"}]}, {"compound": "O=C1CCCCC1", "note": "[cyclo-hexanone]", "values": [{"measurement": "[lactic acid] product", "setting": "[1]", "result": 32, "unit": "wt. %"}]}, {"compound": "O=C(O)CO", "note": "[glycolic acid]", "values": [{"measurement": "wt. % acid in product", "setting": "[2]; feed 15 wt. % acid, 9 wt. % MgCl2", "result": 7.5, "unit": "wt. %"}, {"measurement": "wt. % acid in product", "setting": "[2]; feed 23 wt. % acid, 15 wt. % MgCl2", "result": 15, "unit": "wt. %"}]}, {"compound": "CC(O)C(=O)O", "note": "(stereo not drawn) [lactic acid]", "values": [{"measurement": "concentration of lactic acid in aqueous phase after back extraction", "setting": "[5]", "result": 34.5, "unit": "wt %"}]}]}
